Record: PubChem BioAssay AID504808 (Drosophila RNAi Screening Center, 2011)

- Assay: 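Fly genes required to hold E2F transcription in check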 (primary screen)
- Cell system: Drosophila S2 cells
- Reagents: long dsRNA against Drosophila genes
- Measurement: 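Dual luciferase plate measurements; E2F-specific signal taken as firefly over Renilla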
- Direction: E2F firefly: higher = more E2F reporter activity; Renilla normaliser: higher = more normaliser reporter signal
- Rule for the call: 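a knock-down counted as active when the firefly/Renilla E2F signal rose above 50%, a threshold chosen arbitrarily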
The screen tested about 21,000 reagents; below is a random part of those that have a named target and a result. Over the whole deposit, 18 (0.084%) were called active. 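Raw counts without plate normalisation, one of two replicates; the ratio scores behind the calls were not deposited.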 Unmarked entries are inactive. Reagent sequences are not shown. Not stated in the record: the amount of reagent, the time to read-out.

{"Gene": "CG8565", "dsRNA": "DRSC20112", "E2F firefly, rep 1": 1.47e5, "Renilla normaliser, rep 1": 6206}
{"Gene": "CG4318", "dsRNA": "DRSC19887", "E2F firefly, rep 1": 1.36e5, "Renilla normaliser, rep 1": 6333}
{"Gene": "CG6283", "dsRNA": "DRSC16009", "E2F firefly, rep 1": 1.02e5, "Renilla normaliser, rep 1": 5603}
{"Gene": "Hk", "dsRNA": "DRSC17638", "E2F firefly, rep 1": 52696, "Renilla normaliser, rep 1": 2177}
{"Gene": "Hk", "dsRNA": "DRSC18138", "E2F firefly, rep 1": 7318, "Renilla normaliser, rep 1": 820}
{"Gene": "Hk", "dsRNA": "DRSC18674", "E2F firefly, rep 1": 78640, "Renilla normaliser, rep 1": 5100}
{"Gene": "CG17193", "dsRNA": "DRSC15187", "E2F firefly, rep 1": 1.36e5, "Renilla normaliser, rep 1": 7215}
{"Gene": "CG10062", "dsRNA": "DRSC05960", "E2F firefly, rep 1": 75002, "Renilla normaliser, rep 1": 3302}
{"Gene": "CG30395", "dsRNA": "DRSC03896", "E2F firefly, rep 1": 1.28e5, "Renilla normaliser, rep 1": 5351}
{"Gene": "Jon65Aiv", "dsRNA": "DRSC10644", "E2F firefly, rep 1": 81791, "Renilla normaliser, rep 1": 3519}
{"Gene": "CG3588", "dsRNA": "DRSC18473", "E2F firefly, rep 1": 1.12e5, "Renilla normaliser, rep 1": 5572}

Next part (3 carried over from the part before).
{"Gene": "CG30395", "dsRNA": "DRSC03896", "E2F firefly, rep 1": 1.28e5, "Renilla normaliser, rep 1": 5351}
{"Gene": "Jon65Aiv", "dsRNA": "DRSC10644", "E2F firefly, rep 1": 81791, "Renilla normaliser, rep 1": 3519}
{"Gene": "CG3588", "dsRNA": "DRSC18473", "E2F firefly, rep 1": 1.12e5, "Renilla normaliser, rep 1": 5572}
{"Gene": "snama", "dsRNA": "DRSC04049", "E2F firefly, rep 1": 71334, "Renilla normaliser, rep 1": 3306}
{"Gene": "CG5532", "dsRNA": "DRSC04509", "E2F firefly, rep 1": 48965, "Renilla normaliser, rep 1": 3110}
{"Gene": "Or83a", "dsRNA": "DRSC12357", "E2F firefly, rep 1": 1.33e5, "Renilla normaliser, rep 1": 6377}
{"Gene": "CG13887", "dsRNA": "DRSC08357", "E2F firefly, rep 1": 69458, "Renilla normaliser, rep 1": 3426}
{"Gene": "Ir7g", "dsRNA": "DRSC18008", "E2F firefly, rep 1": 37303, "Renilla normaliser, rep 1": 3064}
{"Gene": "CG13784", "dsRNA": "DRSC00974", "E2F firefly, rep 1": 1.50e5, "Renilla normaliser, rep 1": 6755}
{"Gene": "CG13784", "dsRNA": "DRSC02287", "E2F firefly, rep 1": 1.08e5, "Renilla normaliser, rep 1": 217}
{"Gene": "par-6", "dsRNA": "DRSC20359", "E2F firefly, rep 1": 1.44e5, "Renilla normaliser, rep 1": 5011}
{"Gene": "SuUR", "dsRNA": "DRSC11292", "E2F firefly, rep 1": 95763, "Renilla normaliser, rep 1": 4291}
{"Gene": "CG1317", "dsRNA": "DRSC08305", "E2F firefly, rep 1": 72680, "Renilla normaliser, rep 1": 3346}
{"Gene": "CG6420", "dsRNA": "DRSC16035", "E2F firefly, rep 1": 1.15e5, "Renilla normaliser, rep 1": 6297}
{"Gene": "mars", "dsRNA": "DRSC06656", "E2F firefly, rep 1": 74051, "Renilla normaliser, rep 1": 3873}
{"Gene": "CG8289", "dsRNA": "DRSC20101", "E2F firefly, rep 1": 1.53e5, "Renilla normaliser, rep 1": 5214}
{"Gene": "Npl4", "dsRNA": "DRSC15615", "E2F firefly, rep 1": 1703, "Renilla normaliser, rep 1": 932}
{"Gene": "Npl4", "dsRNA": "DRSC15616", "E2F firefly, rep 1": 1.12e5, "Renilla normaliser, rep 1": 6479}
{"Gene": "ab", "dsRNA": "DRSC03478", "E2F firefly, rep 1": 1.41e5, "Renilla normaliser, rep 1": 3975}
{"Gene": "Ir10a", "dsRNA": "DRSC18891", "E2F firefly, rep 1": 84338, "Renilla normaliser, rep 1": 2835}
{"Gene": "Ir10a", "dsRNA": "DRSC19478", "E2F firefly, rep 1": 1.15e5, "Renilla normaliser, rep 1": 5069}
{"Gene": "Ir10a", "dsRNA": "DRSC19479", "E2F firefly, rep 1": 1.19e5, "Renilla normaliser, rep 1": 5495}
